Source: patent publication US20220275103A1
These are yes or no findings as the source states them, for the method shown. Some results given as binding are weak or reduced against the parent protein; the word gives no strength.

What was measured:
[1] = target: T1, CD300c antigen (11832-H08H, Sino Biological) (UniProt Q08708); assay: ELISA screen of scFv periplasmic extracts on coated CD300c antigen (Examples 1.2-1.3)
T1 sequence (looked up): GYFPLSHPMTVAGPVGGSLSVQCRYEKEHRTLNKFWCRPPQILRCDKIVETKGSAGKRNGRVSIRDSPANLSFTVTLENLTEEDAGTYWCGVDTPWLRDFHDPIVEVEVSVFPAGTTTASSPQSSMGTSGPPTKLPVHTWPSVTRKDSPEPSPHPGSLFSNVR

[2] = target: T1, CD300c antigen (11832-H08H, Sino Biological); assay: binding ELISA, sigmoid curves of FIG. 9

B1: SK12 (antibody, V domains shown)
VH: RVQLLESGGGLVQPGGSLRLSCAASGFTFSSYAMHWVRQAPGKGLEWVSAISGSGGDTYHADSVKGRFTISRDNSKNTLYLQMNSLRAEDTAVYYCTRGLSGFDYWGQGTLVTVSS
VL: EIVLTQSPGTLSLSPGERATLSCRASQSISSYLNWYQQKPGQAPRLLIYDASNRAPGIPDRFSGSGSGTDFTLTISRLEPEDFAVYYCQQSYSIPITFGQGTKVEIKF
B1 was tested, and the binding [1] was “binds” and the binding [2] was “binds”.
